The whole screen tested about 400,000 compounds, of which about 13,000 (3.2%) were called active. Inconclusive results, whose numbers are uncertain, are shown with a selection of clear calls. Calls follow the shape of the dose curve; as a rule, active = well fitted cell-killing curve with a large enough effect; inconclusive = small, poorly fitted or top-dose-only effect, or effect the other way; inactive = flat fitted curve, though single readings scatter. Potencies beside an inconclusive call are fits to weak or partial responses and may not hold up.
Assay: qHTS assay for MDR1-selective chemotherapeutics: Primary screen using the drug-selected MDR subline cells KB-V1; also: nearly all actives have a fitted effect of over 60% in size
Conditions: KB-V1 MDR cells viability, CellTiter-Glo, 72 h; activity change, negative = cytotoxicity: at 46.1 µM (top of the series)
In short: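 Cells of the MDR subline KB-V1 are plated, dosed with compound at multiple concentrations, and incubated 72 h at 37 degrees C; CellTiter-Glo is then added and luminescence read after 10 min.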
For `CO/N=C/c1ccc(N2CCN(C(=O)c3ccc(Cl)cc3Cl)CC2)c([N+](=O)[O-])c1`, the Potency was active: 2.59 µM.
In the case of `COc1ccccc1NC(=O)CN(C)S(=O)(=O)c1cc(C)ccc1OC`, the Potency is reported as active: 20.6 µM.
With `CCc1ccc(NCc2cc3cc(OC)c(OC)cc3n(CC(=O)Nc3cc(C)ccc3C)c2=O)cc1` the Potency was inconclusive: 29.1 µM [cytotoxic, single point].
With `CC1(C)CC(=O)C2=C(C1)N(CC1CCCO1)C(=O)NC2(C(F)(F)F)C(F)(F)F` (configuration not stated) the Potency was inconclusive: 10.3 µM [cytotoxic, partial curve, poor fit].
With `COc1ccc(S(=O)(=O)N(CC(=O)NCc2ccccc2)c2ccc(C)cc2)cc1OC` the “activity change, negative = cytotoxicity” value was inactive: 6.02%.
In the case of `O=C(c1nn2c(C(F)(F)F)cc(-c3ccccc3)nc2c1Cl)N1CCN2CCCC2C1` (configuration not stated), the “activity change, negative = cytotoxicity” value is reported as inactive: -8.22%.
For `Cc1ccc(NC(=O)c2cccc(S(=O)(=O)N3CCCc4ccccc43)c2)nc1`, the Potency was inconclusive: 29.1 µM [cytotoxic, single point].
In the case of `CC(C)Cc1nnc(NC(=O)c2ccc([N+](=O)[O-])cc2)s1`, the “activity change, negative = cytotoxicity” value is reported as inactive: 0%.
In the case of `Cc1oc2cc(O)cc(C)c2c(=O)c1-c1cnn(-c2ccccc2)c1`, the Potency is reported as inconclusive: 29.1 µM [cytotoxic, single point].
For `O=C(NCCOc1ccc(F)cc1)c1ccccc1SCc1ccccc1`, the Potency was inconclusive: 29.1 µM [cytotoxic, single point].
With `CC(=O)C1=C(C)Nc2ncnn2C1c1ccccc1` (configuration not stated) the Potency was inconclusive: 29.1 µM [rising, single point].
In the case of `CCOC(=O)c1ccccc1NC1c2ccccc2C(=O)N1c1ccc(C)cn1` (configuration not stated), the “activity change, negative = cytotoxicity” value is reported as inactive: -7.75%.
With `CCCNc1nc(Nc2ccc(C)c(Cl)c2)c2cnn(C)c2n1` the “activity change, negative = cytotoxicity” value was inactive: -14.2%.
For `Cc1ccccc1OCC(O)CN(Cc1ccccc1O)C1CCCCC1` (configuration not stated), the Potency was inconclusive: 29.1 µM [cytotoxic, single point].
For `COc1cc(/C=C/c2cc[n+](C)cc2)ccc1OCC(=O)Nc1ccccc1`, the Potency was inconclusive: 11.6 µM [rising, single point].
In the case of `CCc1ccc(Sc2cc(C(=O)NC(C)CC)c3ccccc3n2)cc1` (configuration not stated), the activity change, negative = cytotoxicity is reported as inconclusive: -50.8%.
For `O=C(CCN1CCN(c2ccccc2F)CC1)Nc1ccc(F)cc1`, the “activity change, negative = cytotoxicity” value was inactive: 2.86%.
For `COc1ccc(-c2noc(CSc3nnc(-c4ccncc4)n3-c3ccc(C)cc3)n2)cc1`, the “activity change, negative = cytotoxicity” value was inactive: -7.3%.
With `COc1cc(S(=O)(=O)Nc2cc(C)cc(C)c2)ccc1F` the Potency was active: 23.1 µM.
With `Cc1ccn2c(Cc3ccccc3)c(-c3ccc(Br)cc3)nc2c1` the Potency was inconclusive: 0.461 µM [cytotoxic, full curve].
For `CN(C)CCNc1ncnc2c1sc1nc(N3CCOCC3)c3c(c12)CC(C)(C)SC3`, the Potency was inconclusive: 32.6 µM [cytotoxic, single point].
For `COC(=O)C1=C(C)Nc2c(c(=O)n(C)c(=O)n2C)C1c1cccs1` (configuration not stated), the “activity change, negative = cytotoxicity” value was inactive: 9.32%.
For `COc1cc(OC)cc(C(=O)Nc2cccc3cccnc23)c1`, the Potency was inconclusive: 29.1 µM [cytotoxic, single point].
With `Cc1cccc(Nc2c(O)nc[nH]c2=O)c1` the “activity change, negative = cytotoxicity” value was inactive: 16.7%.
For `Cc1nc(N2CCN(c3ccccc3)CC2)nc2c1C(=O)CCC2`, the Potency was inconclusive: 20.6 µM [cytotoxic, single point].
For `CCCn1c(N)c(N(CCOC)C(=O)c2cc(S(=O)(=O)N3CCCCCC3)ccc2OC)c(=O)[nH]c1=O`, the “activity change, negative = cytotoxicity” value was inactive: 7.29%.
For `Cn1ccnc1SCC(=O)Nc1cc(F)ccc1F`, the Potency was inconclusive: 29.1 µM [rising, partial curve, poor fit].
For `CCc1c(C)sc(NC(=O)/C=C/C(=O)O)c1C(N)=O`, the “activity change, negative = cytotoxicity” value was inactive: 6.99%.
For `O=C(CSc1nnc(-c2ccco2)n1-c1ccccc1)NCCc1ccccc1`, the “activity change, negative = cytotoxicity” value was inactive: -20.9%.
With `COc1ccc(-c2sc3ccccc3c2/C=C/c2ccc(N)cc2)cc1` the “activity change, negative = cytotoxicity” value was inactive: 8.87%.
In the case of `O=C(c1ccco1)N1N=C(C2CCCCC2)CC1(O)C(F)(F)F` (configuration not stated), the Potency is reported as inconclusive: 23.1 µM [cytotoxic, single point].
For `O=C(c1ccc(Cl)c(Cl)c1)N1CCC(=O)N([C@H](COCc2cccc(C(F)(F)F)c2)Cc2ccccc2)CC1`, the Potency was inconclusive: 20.6 µM [cytotoxic, single point].
For `COc1ccc(CNC(=O)CC(c2ccc(OC)c(OC)c2)N2Cc3ccccc3C2=O)cc1` (configuration not stated), the “activity change, negative = cytotoxicity” value was inactive: 0%.
With `CCOc1ccccc1NC(=O)C(c1ccccc1)N1CCN(C(=O)c2ccco2)CC1` (configuration not stated) the “activity change, negative = cytotoxicity” value was inactive: -12.6%.
In the case of `O=S(=O)(c1cccc(Br)c1)N1CCN(c2nc(-c3cccs3)nc3ccccc23)CC1`, the “activity change, negative = cytotoxicity” value is reported as inactive: 11.9%.
With `CCN(CC)c1ccc(/C=C2\NC(=O)NC2=O)cc1` the Potency was inconclusive: 18.4 µM [cytotoxic, single point].
For `COC(=O)c1c(NC(=O)CSc2nnnn2-c2ccccc2)sc2c1CCC(C)C2` (configuration not stated), the Potency was inconclusive: 14.6 µM [cytotoxic, partial curve].
For `CCC1CC(C(=O)Nc2ccccc2)C(=O)O1` (configuration not stated), the activity change, negative = cytotoxicity was inconclusive: 38.7%.
With `Cc1cccc(C)c1NC(=O)/C(=C/c1ccco1)c1ccccc1` the Potency was inconclusive: 23.1 µM [cytotoxic, partial curve, poor fit].
With `CN(C)CCCN1C(=O)c2cccc3c(Br)ccc(c23)C1=O` the Potency was inconclusive: 20.6 µM [cytotoxic, single point].
In the case of `Cc1ccc([C@H]2C[C@@H](n3cc(COC(=O)c4ccccc4)nn3)[C@H](O)CN2C(=O)C2CCCCC2)cc1`, the activity change, negative = cytotoxicity is reported as inconclusive: -9.97%.
With `CC(C)(C)C(=O)NC(=S)Nc1sc2c(c1C(N)=O)CCC2` the Potency was inconclusive: 25.9 µM [cytotoxic, single point].
In the case of `Cc1cc(=O)[nH]c(SCC(=O)NC2CCCCCC2)n1`, the “activity change, negative = cytotoxicity” value is reported as inactive: -2.31%.
For `COc1ccc(-c2noc(-c3cccc(OC)c3OC)n2)cc1OC`, the Potency was inconclusive: 20.6 µM [cytotoxic, single point].
With `CC(C)c1ccc(NC(=O)c2cc(S(=O)(=O)NCc3ccccc3Cl)ccc2F)cc1` the Potency was inconclusive: 29.1 µM [cytotoxic, single point].
With `COc1cccc(COC(=O)CSCC(=O)Nc2ccc(C)cc2)c1OC` the Potency was inconclusive: 20.6 µM [rising, single point].
In the case of `CCN(C[C@H]1N[C@@](C)(C(=O)OC)[C@H]2C(=O)N(C)C(=O)[C@@H]12)C(=O)Nc1ccc(OC)cc1`, the “activity change, negative = cytotoxicity” value is reported as inactive: -1.74%.

Reference: PubChem BioAssay AID1347076 (National Center for Advancing Translational Sciences (NCATS), 2019)
% is scaled to controls: 0 for no effect and ±100 for the full control effect; potency is read from the fitted curve at half-maximal effect.
